# The other results are listed elsewhere or left out.
# System: Caenorhabditis elegans N2
# Test: aldicarb interaction hit call (worm growth perturbed in combination with 10 uM aldicarb in both replicates, no effect as single agent) (binary (1 = interacts)); higher = interacts with aldicarb (growth perturbed)
# Conditions: first compound 1.5 µM; aldicarb concentration 10 µM; 6 days; 20 °C
row,SMILES,aldicarb interaction hit call
1,O=C(Nc1ccc(C(F)(F)F)cc1)C1CCN(C(=O)c2ccc([N+](=O)[O-])cc2)CC1 [wact-222] + CNC(=O)O/N=C/C(C)(C)SC [aldicarb],inactive: 0
2,COc1ccc(-c2noc(CCCOc3ccccc3)n2)cc1 [wact-604] + CNC(=O)O/N=C/C(C)(C)SC [aldicarb],inactive: 0
3,Cc1cc(-c2nc3ncccc3o2)ccc1NC(=O)c1cccc(Cl)c1 [wact-137] + CNC(=O)O/N=C/C(C)(C)SC [aldicarb],inactive: 0
4,Cc1cccc(C(=O)N2CCN(c3ccc([N+](=O)[O-])cc3)CC2)c1 [wact-217] + CNC(=O)O/N=C/C(C)(C)SC [aldicarb],inactive: 0
5,Cc1ccc(-c2csc(NC(=O)c3ccco3)n2)cc1 [wact-620] + CNC(=O)O/N=C/C(C)(C)SC [aldicarb],inactive: 0
6,CN(Cc1ccc2nonc2c1)CC1CCN(CCc2cccc(F)c2)CC1 [wact-324] + CNC(=O)O/N=C/C(C)(C)SC [aldicarb],inactive: 0
7,CCCCNC(=S)NC(=O)c1ccccc1 [wact-486] + CNC(=O)O/N=C/C(C)(C)SC [aldicarb],inactive: 0
8,N/C(=N\OC(=O)c1ccccc1Cl)c1ccccc1 [wact-34] + CNC(=O)O/N=C/C(C)(C)SC [aldicarb],inactive: 0
9,Cc1ccc2nc(-c3ccc(/N=C/c4ccc(O)cc4)cc3)sc2c1 [wact-374] + CNC(=O)O/N=C/C(C)(C)SC [aldicarb],inactive: 0
10,C#CCOc1nc(OCC#C)nc(N(c2ccccc2)c2ccccc2)n1 [wact-344] + CNC(=O)O/N=C/C(C)(C)SC [aldicarb],inactive: 0
11,CCCCC1CCC(c2nc(-c3cccnc3)no2)CC1 (stereo not drawn) [wact-444] + CNC(=O)O/N=C/C(C)(C)SC [aldicarb],inactive: 0
12,Fc1ccc(NC2CCCN(Cc3ccc(OC(F)F)cc3)C2)cc1 (stereo not drawn) [wact-260] + CNC(=O)O/N=C/C(C)(C)SC [aldicarb],inactive: 0
13,O/N=C1\CCCc2c1[nH]c1ccc(Cl)cc21 [wact-33] + CNC(=O)O/N=C/C(C)(C)SC [aldicarb],inactive: 0
14,C#CCSc1nnc(-c2ccc(C)cc2)o1 [wact-342] + CNC(=O)O/N=C/C(C)(C)SC [aldicarb],inactive: 0
15,N/C(=N\OC(=O)COc1ccc(Cl)cc1Br)c1ccncc1 [wact-440] + CNC(=O)O/N=C/C(C)(C)SC [aldicarb],inactive: 0
16,c1ccc(OCc2nc(-c3ccccc3)no2)cc1 [wact-62] + CNC(=O)O/N=C/C(C)(C)SC [aldicarb],inactive: 0
17,CC(Oc1ccc(Br)cc1)C(=O)O/N=C(\N)c1ccncc1 (stereo not drawn) [wact-104] + CNC(=O)O/N=C/C(C)(C)SC [aldicarb],inactive: 0
18,O=C(NCCNc1ccc([N+](=O)[O-])cc1Cl)c1ccc(F)cc1 + CNC(=O)O/N=C/C(C)(C)SC [aldicarb],inactive: 0
19,Ic1ccc(OCCCCCN2CCOCC2)cc1 [wact-41] + CNC(=O)O/N=C/C(C)(C)SC [aldicarb],inactive: 0

row,SMILES,aldicarb interaction hit call
1,Cc1ccccc1NC(=S)NC(=O)c1cccs1 [wact-460] + CNC(=O)O/N=C/C(C)(C)SC [aldicarb],inactive: 0
2,FC(F)(F)c1cc(-c2ccc(-n3cccc3)cc2)[nH]n1 + CNC(=O)O/N=C/C(C)(C)SC [aldicarb],inactive: 0
3,CC(NC(=O)c1ccccc1Cl)c1ccc2c(c1)CCCC2 (stereo not drawn) [wact-532] + CNC(=O)O/N=C/C(C)(C)SC [aldicarb],inactive: 0
4,O=C(Nc1ccc(Cl)cc1)N1CCCC(N2CCN(c3ccccc3)CC2)C1 (stereo not drawn) [wact-327] + CNC(=O)O/N=C/C(C)(C)SC [aldicarb],inactive: 0
5,O=C(OCc1ccccc1)Sc1nc2ccccc2o1 [wact-396] + CNC(=O)O/N=C/C(C)(C)SC [aldicarb],inactive: 0
6,CCNCc1ccc(-c2ccc(Br)cc2C)o1.Cl [wact-202] + CNC(=O)O/N=C/C(C)(C)SC [aldicarb],inactive: 0
7,Cc1ccc(-c2cc(-c3cccc(F)c3)[nH]n2)c(O)c1 [wact-446] + CNC(=O)O/N=C/C(C)(C)SC [aldicarb],active: 1
8,CCNCc1ccc(-c2ccc(F)c(Cl)c2)o1.Cl [wact-186] + CNC(=O)O/N=C/C(C)(C)SC [aldicarb],inactive: 0
9,Clc1cc(Br)ccc1OCCNC1CCCC1.O=C(O)C(=O)O [wact-95] + CNC(=O)O/N=C/C(C)(C)SC [aldicarb],inactive: 0
10,Fc1cccc(-c2nc(-c3ccccc3)no2)c1 [wact-191] + CNC(=O)O/N=C/C(C)(C)SC [aldicarb],inactive: 0
11,COc1ccc2cc([N+](=O)[O-])cnc2c1 [wact-587] + CNC(=O)O/N=C/C(C)(C)SC [aldicarb],inactive: 0
12,N/C(=N\OC(=O)Cc1cccs1)c1ccccc1 [wact-493] + CNC(=O)O/N=C/C(C)(C)SC [aldicarb],inactive: 0
13,CSc1ncnc2sc(-c3ccccc3)cc12 [wact-603] + CNC(=O)O/N=C/C(C)(C)SC [aldicarb],inactive: 0
14,FC(F)(F)c1ccc(-c2noc(CN3CCC(N4CCSCC4)CC3)n2)cc1 [wact-238] + CNC(=O)O/N=C/C(C)(C)SC [aldicarb],inactive: 0
15,c1ccc(SCc2nc(-c3ccccn3)no2)cc1 [wact-84] + CNC(=O)O/N=C/C(C)(C)SC [aldicarb],inactive: 0
16,Cl.NCc1cc(Cl)c(OCc2ccccc2)c(Cl)c1 [wact-129] + CNC(=O)O/N=C/C(C)(C)SC [aldicarb],inactive: 0
17,C=CCSc1nc2ccccc2c(=O)n1-c1ccccc1OC [wact-60] + CNC(=O)O/N=C/C(C)(C)SC [aldicarb],inactive: 0
18,Cc1ccc2nc(-c3ccc(/N=C/c4ccc(O)cc4O)cc3)sc2c1 [wact-373] + CNC(=O)O/N=C/C(C)(C)SC [aldicarb],inactive: 0
19,O=S(=O)(Nc1cc(Cl)cc(Cl)c1)c1ccc(Cl)cc1 [wact-407] + CNC(=O)O/N=C/C(C)(C)SC [aldicarb],inactive: 0

# A second format for part of the listing above.
row	SMILES	aldicarb interaction hit call
15	N/C(=N\OC(=O)COc1ccc(Cl)cc1Br)c1ccncc1 [wact-440] + CNC(=O)O/N=C/C(C)(C)SC [aldicarb]	inactive: 0
16	c1ccc(OCc2nc(-c3ccccc3)no2)cc1 [wact-62] + CNC(=O)O/N=C/C(C)(C)SC [aldicarb]	inactive: 0

# — the supplement of paper PMC5393889
